Experimental data as given in paper PMC4679777.
No constants are given. Whether binding was seen depends on the method and setting. In cells and extracts the contact can be indirect. Some entries that bind do so weakly or less than the wild type.

The chains behind the UniProt entries cited, without tags or fusion partners.
UniProt P34158: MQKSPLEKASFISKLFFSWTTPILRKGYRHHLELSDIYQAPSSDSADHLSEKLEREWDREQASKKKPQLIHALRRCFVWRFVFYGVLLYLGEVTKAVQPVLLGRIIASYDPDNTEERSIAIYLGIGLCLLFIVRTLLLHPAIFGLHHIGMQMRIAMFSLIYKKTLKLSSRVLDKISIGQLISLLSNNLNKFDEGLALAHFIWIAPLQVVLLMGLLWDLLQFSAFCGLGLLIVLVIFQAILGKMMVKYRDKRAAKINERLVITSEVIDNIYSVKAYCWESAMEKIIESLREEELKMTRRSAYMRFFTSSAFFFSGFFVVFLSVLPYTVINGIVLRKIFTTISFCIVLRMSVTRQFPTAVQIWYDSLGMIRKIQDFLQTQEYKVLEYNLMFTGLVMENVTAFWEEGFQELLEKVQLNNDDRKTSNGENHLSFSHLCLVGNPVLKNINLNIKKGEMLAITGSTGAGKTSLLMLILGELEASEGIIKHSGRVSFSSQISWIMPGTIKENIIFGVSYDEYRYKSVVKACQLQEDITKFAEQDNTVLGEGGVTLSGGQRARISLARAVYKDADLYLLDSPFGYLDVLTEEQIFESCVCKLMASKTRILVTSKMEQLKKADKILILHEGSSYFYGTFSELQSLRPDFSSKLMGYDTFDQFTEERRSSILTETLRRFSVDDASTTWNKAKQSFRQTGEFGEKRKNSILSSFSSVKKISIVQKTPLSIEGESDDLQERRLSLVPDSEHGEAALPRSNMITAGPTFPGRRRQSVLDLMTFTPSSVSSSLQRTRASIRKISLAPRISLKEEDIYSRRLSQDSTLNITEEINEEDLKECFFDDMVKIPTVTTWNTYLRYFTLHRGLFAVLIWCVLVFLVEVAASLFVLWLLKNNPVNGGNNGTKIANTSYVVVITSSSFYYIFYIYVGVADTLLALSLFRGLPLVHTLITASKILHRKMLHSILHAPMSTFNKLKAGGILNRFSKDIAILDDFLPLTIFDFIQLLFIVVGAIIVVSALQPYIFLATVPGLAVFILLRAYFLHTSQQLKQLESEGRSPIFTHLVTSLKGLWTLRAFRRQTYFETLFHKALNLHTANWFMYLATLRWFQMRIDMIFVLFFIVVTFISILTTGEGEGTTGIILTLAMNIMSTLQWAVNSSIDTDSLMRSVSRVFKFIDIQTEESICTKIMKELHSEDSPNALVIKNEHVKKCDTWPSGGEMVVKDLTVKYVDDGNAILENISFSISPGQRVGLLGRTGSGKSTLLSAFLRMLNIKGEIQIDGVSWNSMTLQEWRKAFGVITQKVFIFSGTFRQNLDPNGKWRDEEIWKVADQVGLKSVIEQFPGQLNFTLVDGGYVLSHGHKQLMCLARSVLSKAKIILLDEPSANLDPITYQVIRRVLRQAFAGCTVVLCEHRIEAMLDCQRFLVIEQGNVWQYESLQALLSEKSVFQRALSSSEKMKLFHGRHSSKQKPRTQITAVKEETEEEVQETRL

Target: cystic fibrosis transmembrane conductance regulator (Cftr) (rat (endogenous in maturation-stage enamel organ)) (UniProt P34158)
Experiment: co-IP; maturation-stage enamel organ protein (50-100 ug) lysed in 1xTBS with 1% Triton-100, pre-cleared, 1 ug anti-Cftr antibody at 4°C, A/G agarose beads overnight, washed with 50 mM Tris, 0.1% NP-40, pH 7.4; immunoblot for Slc26a1, Slc26a6, Slc26a7; negative control without the anti-Cftr antibody

binding: binds
B1: Slc26a1 (protein, UniProt P45380 1-703)
chain: MDASPEPPQKGGTLVLVRRQPPVSQGLLETLKARLKKSCTCSMPCAQALVQGLFPVIRWLPQYRLKEYLAGDVMSGLVIGIILVPQAIAYSLLAGLQPIYSLYTSFFANLIYFLMGTSRHVNVGIFSLLCLMVGQVVDRELQLAGFDPSQDSLGPGNNDSTLNNTATLTVGLQDCGRDCHAIRIATALTLMAGLYQVLMGILRLGFVSTYLSQPLLDGFAMGASVTILTSQAKHLLGVRIPRHQGLGMVIHTWLSLLQNVGQANLCDVVTSAVCLAVLLTAKELSDRYRHYLKVPVPTELLVIVVATIASHFGQLHTRFGSSVAGNIPTGFVAPQIPDPKIMWSVALDAMSLALVGSAFSISLAEMFARSHGYSVSANQELLAVGCCNVLPAFFHCFATSAALSKTLVKIATGCQTQLSSVVSAAVVLLVLLVLAPLFHDLQRCVLACIIVVSLRGALRKVKDLPQLWRLSPADALVWVATAATCVLVSIEAGLLAGVFFSLLSLAGRTQRPRAALLARIGDSTFYEDAAEFEGLLPPPEVRVFRFTGPLYYANKDFFLRSLYSLTGLDAGYSATRKDRGTEVGVSNRSLVDRKDLGSVSSGDGLVVPLAFGFHTVVIDCAPLLFLDVAGMATLKDLRKNYRALDITLLLACCSPSVRDTLRKGGFLGEDQGTAEELLFPSVHSAVETACARREELMAADSAL
